Reference: the supplement of paper PMC10849652
This is one part of the list.

By UniProt entry, the sequences of proteins in these tests, tags left out. Where a name states a change or a piece, a line headed by the entry shows the natural chain unless it says otherwise.
UniProt P09234, whole entry, looked up: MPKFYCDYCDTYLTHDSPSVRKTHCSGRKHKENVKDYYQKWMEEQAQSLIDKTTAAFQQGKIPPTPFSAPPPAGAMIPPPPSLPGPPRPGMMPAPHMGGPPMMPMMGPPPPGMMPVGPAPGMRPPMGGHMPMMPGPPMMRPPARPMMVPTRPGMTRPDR
UniProt Q13485: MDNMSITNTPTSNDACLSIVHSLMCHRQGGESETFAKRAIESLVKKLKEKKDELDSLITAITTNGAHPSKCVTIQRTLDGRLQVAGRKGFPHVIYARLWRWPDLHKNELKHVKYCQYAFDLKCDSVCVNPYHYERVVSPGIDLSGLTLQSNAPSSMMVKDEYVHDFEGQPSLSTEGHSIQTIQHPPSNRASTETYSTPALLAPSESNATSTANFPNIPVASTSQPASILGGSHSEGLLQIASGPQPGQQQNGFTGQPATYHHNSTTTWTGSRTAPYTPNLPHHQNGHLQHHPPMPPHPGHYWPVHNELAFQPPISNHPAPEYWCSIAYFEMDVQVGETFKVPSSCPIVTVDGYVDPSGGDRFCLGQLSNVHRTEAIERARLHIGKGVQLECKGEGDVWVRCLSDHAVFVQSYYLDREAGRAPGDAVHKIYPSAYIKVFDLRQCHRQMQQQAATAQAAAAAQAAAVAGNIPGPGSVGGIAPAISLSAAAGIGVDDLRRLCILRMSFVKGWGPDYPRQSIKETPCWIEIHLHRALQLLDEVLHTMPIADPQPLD
UniProt Q9UPR3: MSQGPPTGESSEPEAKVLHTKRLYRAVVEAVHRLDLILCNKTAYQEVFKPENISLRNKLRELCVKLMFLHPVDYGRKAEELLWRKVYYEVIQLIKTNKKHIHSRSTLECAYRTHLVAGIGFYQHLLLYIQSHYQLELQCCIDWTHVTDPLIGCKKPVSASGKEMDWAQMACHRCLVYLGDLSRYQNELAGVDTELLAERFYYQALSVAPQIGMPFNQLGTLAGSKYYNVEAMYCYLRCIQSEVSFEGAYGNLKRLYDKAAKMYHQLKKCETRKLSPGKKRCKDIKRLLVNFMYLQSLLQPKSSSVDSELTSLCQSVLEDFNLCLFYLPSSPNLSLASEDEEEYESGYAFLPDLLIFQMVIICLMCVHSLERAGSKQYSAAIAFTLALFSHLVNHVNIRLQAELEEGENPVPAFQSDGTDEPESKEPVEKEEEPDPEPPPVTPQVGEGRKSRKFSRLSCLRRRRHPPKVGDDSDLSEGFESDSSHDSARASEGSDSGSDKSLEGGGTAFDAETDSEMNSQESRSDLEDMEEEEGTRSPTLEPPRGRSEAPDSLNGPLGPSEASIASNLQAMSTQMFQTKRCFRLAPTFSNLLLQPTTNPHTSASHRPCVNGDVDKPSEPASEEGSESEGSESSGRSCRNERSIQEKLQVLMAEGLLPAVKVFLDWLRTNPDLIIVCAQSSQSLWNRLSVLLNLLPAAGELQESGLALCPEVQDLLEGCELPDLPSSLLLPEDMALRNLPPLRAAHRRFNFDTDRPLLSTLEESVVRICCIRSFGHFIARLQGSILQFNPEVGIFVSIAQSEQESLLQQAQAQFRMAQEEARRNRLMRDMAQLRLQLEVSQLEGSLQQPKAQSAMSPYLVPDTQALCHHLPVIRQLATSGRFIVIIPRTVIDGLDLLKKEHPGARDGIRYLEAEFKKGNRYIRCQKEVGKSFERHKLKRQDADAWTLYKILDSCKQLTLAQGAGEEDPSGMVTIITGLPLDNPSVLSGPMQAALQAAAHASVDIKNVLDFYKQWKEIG
UniProt Q96H20: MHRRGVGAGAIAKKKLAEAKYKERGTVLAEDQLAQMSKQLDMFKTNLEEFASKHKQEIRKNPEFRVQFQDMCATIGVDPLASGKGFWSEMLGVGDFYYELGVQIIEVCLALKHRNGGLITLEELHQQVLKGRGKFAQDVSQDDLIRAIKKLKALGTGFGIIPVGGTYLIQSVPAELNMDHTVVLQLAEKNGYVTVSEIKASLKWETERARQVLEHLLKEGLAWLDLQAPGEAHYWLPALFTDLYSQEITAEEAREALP
UniProt P28370, whole entry, looked up: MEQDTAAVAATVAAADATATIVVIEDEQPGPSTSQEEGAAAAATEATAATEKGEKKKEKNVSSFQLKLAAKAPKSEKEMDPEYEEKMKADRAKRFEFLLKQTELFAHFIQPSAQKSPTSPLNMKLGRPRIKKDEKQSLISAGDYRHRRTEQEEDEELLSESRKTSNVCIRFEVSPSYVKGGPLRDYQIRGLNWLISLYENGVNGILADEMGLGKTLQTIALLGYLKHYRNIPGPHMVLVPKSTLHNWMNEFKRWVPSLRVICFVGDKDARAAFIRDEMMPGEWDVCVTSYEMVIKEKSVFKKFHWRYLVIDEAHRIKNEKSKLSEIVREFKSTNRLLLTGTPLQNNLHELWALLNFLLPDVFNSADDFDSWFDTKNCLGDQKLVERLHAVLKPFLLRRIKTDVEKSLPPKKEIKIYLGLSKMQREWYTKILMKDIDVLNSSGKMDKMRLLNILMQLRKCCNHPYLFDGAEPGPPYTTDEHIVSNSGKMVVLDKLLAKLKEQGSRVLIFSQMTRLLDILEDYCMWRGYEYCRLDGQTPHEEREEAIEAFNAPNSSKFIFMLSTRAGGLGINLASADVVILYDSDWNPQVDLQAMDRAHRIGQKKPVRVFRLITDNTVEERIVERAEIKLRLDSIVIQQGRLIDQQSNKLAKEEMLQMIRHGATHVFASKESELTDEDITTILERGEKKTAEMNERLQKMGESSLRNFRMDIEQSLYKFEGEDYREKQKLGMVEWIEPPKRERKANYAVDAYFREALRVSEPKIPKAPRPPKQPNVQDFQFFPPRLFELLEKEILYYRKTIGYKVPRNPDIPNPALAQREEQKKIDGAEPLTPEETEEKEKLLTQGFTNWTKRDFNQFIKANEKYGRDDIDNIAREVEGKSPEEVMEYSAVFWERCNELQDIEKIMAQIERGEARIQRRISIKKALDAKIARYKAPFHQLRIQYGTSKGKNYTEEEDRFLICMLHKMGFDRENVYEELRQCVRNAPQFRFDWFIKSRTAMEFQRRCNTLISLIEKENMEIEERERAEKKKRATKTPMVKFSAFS
UniProt P62316, whole entry, looked up: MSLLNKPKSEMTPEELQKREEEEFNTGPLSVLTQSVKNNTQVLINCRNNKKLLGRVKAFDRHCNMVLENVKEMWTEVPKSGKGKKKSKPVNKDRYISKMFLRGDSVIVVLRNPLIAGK
UniProt Q13596, whole entry, looked up: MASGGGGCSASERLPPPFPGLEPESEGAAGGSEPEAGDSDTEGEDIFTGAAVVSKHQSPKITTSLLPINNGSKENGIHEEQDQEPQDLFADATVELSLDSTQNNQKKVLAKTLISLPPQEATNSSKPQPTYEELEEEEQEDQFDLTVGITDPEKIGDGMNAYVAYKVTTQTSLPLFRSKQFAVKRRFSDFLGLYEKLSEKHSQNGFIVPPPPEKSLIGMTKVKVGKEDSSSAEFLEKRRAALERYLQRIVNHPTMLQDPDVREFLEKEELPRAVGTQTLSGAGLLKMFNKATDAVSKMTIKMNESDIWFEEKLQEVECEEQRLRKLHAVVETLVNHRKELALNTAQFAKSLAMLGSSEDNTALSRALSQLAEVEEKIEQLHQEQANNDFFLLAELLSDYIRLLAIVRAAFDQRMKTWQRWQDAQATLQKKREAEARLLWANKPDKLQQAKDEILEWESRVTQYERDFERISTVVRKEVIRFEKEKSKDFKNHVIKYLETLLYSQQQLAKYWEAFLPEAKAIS
UniProt Q96SB8: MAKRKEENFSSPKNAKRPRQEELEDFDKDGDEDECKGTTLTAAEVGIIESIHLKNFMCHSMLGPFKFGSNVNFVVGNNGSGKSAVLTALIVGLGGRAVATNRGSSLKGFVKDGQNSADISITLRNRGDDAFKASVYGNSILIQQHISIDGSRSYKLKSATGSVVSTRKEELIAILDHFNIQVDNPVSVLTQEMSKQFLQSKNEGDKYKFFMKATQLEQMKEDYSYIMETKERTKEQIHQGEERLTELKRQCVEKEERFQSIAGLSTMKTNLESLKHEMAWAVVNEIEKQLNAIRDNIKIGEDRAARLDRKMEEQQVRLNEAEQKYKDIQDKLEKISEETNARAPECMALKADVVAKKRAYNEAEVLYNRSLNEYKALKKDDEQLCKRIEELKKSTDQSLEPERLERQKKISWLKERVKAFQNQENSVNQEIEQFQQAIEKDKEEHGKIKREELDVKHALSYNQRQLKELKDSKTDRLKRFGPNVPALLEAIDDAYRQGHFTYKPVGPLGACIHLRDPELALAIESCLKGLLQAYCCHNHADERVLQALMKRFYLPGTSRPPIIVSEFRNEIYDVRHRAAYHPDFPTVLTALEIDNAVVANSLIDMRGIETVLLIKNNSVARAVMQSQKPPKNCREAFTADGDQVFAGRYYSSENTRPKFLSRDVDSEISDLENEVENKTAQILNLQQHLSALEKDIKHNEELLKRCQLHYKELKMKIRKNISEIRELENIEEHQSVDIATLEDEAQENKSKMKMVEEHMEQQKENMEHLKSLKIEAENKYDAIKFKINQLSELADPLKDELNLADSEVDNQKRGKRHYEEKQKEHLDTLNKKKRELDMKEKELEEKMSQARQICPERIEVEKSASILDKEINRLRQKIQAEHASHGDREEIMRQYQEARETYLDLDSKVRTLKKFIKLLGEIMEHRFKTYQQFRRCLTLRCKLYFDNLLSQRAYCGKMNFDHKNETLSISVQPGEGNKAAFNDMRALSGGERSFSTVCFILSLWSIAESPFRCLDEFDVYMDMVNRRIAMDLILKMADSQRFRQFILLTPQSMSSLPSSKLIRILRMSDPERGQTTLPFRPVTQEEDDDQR
UniProt P51532, whole entry, looked up: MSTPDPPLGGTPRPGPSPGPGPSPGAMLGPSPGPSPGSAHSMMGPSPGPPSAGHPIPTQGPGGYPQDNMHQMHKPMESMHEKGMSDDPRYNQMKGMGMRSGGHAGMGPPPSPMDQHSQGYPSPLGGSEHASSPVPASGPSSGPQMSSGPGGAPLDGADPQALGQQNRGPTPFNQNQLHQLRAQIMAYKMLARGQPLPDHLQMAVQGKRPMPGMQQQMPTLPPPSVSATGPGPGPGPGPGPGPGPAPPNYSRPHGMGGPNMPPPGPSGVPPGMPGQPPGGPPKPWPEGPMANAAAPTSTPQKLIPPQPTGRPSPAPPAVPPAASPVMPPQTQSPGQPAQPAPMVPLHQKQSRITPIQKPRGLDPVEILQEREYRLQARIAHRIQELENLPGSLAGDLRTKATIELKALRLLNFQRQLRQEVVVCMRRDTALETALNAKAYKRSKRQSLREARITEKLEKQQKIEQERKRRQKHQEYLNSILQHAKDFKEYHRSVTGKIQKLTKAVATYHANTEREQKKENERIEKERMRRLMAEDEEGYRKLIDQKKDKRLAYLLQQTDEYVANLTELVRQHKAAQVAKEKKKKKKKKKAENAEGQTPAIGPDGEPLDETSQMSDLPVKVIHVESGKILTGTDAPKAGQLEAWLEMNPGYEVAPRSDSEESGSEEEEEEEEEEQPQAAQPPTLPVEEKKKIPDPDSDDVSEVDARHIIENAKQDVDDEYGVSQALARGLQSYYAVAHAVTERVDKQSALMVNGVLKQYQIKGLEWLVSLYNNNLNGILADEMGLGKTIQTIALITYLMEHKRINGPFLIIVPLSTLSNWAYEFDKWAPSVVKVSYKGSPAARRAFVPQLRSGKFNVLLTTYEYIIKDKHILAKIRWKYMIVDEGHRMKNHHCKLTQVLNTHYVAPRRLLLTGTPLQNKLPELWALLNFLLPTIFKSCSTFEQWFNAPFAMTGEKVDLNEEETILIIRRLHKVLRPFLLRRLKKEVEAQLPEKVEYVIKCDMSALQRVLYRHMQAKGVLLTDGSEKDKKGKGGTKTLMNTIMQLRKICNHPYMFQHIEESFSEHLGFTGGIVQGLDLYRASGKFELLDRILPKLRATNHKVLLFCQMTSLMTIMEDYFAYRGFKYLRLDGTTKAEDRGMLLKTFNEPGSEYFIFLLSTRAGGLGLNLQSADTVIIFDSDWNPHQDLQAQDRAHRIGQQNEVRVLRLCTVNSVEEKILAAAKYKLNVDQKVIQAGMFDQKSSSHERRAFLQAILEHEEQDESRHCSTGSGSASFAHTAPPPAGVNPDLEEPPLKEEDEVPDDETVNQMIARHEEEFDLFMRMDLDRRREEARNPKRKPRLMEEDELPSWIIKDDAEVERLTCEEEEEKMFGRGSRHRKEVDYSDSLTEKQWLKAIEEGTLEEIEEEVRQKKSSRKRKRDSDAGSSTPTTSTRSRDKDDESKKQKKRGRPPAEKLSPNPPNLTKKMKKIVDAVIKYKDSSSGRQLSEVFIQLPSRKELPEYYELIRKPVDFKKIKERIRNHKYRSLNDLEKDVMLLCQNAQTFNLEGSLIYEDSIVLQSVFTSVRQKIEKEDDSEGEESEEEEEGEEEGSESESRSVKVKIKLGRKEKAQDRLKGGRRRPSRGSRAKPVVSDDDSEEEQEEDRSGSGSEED
UniProt Q9UMY4: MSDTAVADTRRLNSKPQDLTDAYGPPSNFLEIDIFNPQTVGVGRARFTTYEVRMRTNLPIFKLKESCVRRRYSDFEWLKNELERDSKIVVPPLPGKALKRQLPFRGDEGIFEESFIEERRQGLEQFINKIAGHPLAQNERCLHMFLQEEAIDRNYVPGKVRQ

Assays:
Experiment in all cases: log2 fold change, soluble protein after heating vs DMSO (PISA); higher = thermal stabilisation; K562 cells, 10 uM, 30 min; active = over 0.2 and 3.5 SD of the protein, either way, in both replicates (recomputed)
erlotinib = compound: C#Cc1cccc(Nc2ncnc3cc(OCCOC)c(OCCOC)cc23)c1 [erlotinib]
How it was run: (§1)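 Soluble protein was defined as the supernatant after 21,000xg for 90 min. It came from K562 cells at 2×10^6 cells/mL given 10 μM compound for 30 min, heated in aliquots for 3 min across 48°C-58°C, pooled, and extracted in PBS with 0.5% NP-40 at 4°C, and was quantified by TMTpro 16plex LC-MS/MS with equalised channel sums. Thermal stability against control samples, from duplicates, is reported as log2 fold change.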

[1] = compound: C/C(=N\NC(=O)C1=CC(=CC=C1)S(=O)(=O)N2CCOCC2)/C3=C(C=CC(=C3)Cl)O
How it was run: as §1

[2] = compound: C1=CC(=C(C=C1Cl)C2=NC3=NC=CN=C3C(=N2)NC4=CC=NC=C4)F
How it was run: as §1

[3] = compound: C1=CC(=CC=C1C2=NC3=C(N2)C=C(C=C3)C(=O)N)OC4=CC=C(C=C4)Cl
How it was run: as §1

[4] = compound: C1=CC2=C(C=CC(=C2)/C=C\3/C(=O)NC(=NCC4=CC=CS4)S3)N=C1
How it was run: as §1

[5] = compound: C1=CC2=NC=CN=C2C=C1/C=C/3\C(=O)NC(=O)S3
How it was run: as §1

[6] = compound: C1=CC=C(C=C1)C2=NC(=C(N2)C3=CC=NC=C3)C4=CC(=C(C=C4)Cl)O
How it was run: as §1

[7] = compound: C1=CC=C2C(=C1)C3=NNC4=CC=CC(=C43)C2=O
How it was run: as §1

[8] = compound: C1CCN(C1)C(=O)NC2=CC=CC(=C2)NC3=NC=C(C(=N3)NCCC4=CN=CN4)Br
How it was run: as §1

[9] = compound: C1CN(CCC1(CC2=CC=C(C=C2)Cl)N)C3=NC=NC4=C3C=CN4
How it was run: as §1

Measured: log2 fold change

SMYD3 (UniProt Q9H7B4)
inactive: erlotinib 0.056 | [1] 0.253 | [2] -0.099 | [3] 0.006 | [4] 0.094 | [5] 0.11 | [6] -0.053 | [7] 0.077 | [8] -0.217 | [9] -0.186

SNCG (UniProt O76070)
inactive: erlotinib 0.031 | [1] -0.026 | [2] 0.066 | [3] 0.001 | [4] -0.015 | [5] 0.056 | [6] -0.035 | [7] -0.014 | [8] 0.068 | [9] 0.04

SNRPC (UniProt P09234)
inactive: erlotinib -0.031 | [1] -0.058 | [2] -0.008 | [3] 0.005 | [4] -0.123 | [5] 0.096 | [6] 0.009 | [7] -0.053 | [8] -0.001 | [9] 0.098

SLK isoform 2 (UniProt Q9H2G2)
inactive: erlotinib -0.023 | [1] 0.083 | [2] -0.098 | [3] -0.001 | [4] 0.043 | [5] 0.075 | [6] -0.135 | [7] -0.047 | [8] -0.028 | [9] -0.057

SMIM12 (UniProt Q96EX1)
inactive: erlotinib 0.049 | [1] 0.114 | [2] 0.069 | [3] -0.019 | [4] -0.146 | [5] -0.005 | [6] -0.022 | [7] 0.032 | [8] -0.018 | [9] 0.076

SMAD9 (UniProt O15198)
inactive: erlotinib -0.001 | [1] 0.086 | [2] 0.101 | [3] -0.055 | [4] 0 | [5] -0.012 | [6] -0.111 | [7] -0.098 | [8] 0.113 | [9] -0.076

SNX14 (UniProt Q9Y5W7)
inactive: erlotinib 0.064 | [1] -0.237 | [2] -0.146 | [3] 0.054 | [4] 0.041 | [5] -0.045 | [6] -0.051 | [7] 0.018 | [8] 0.039 | [9] 0.022

SMAD4 (UniProt Q13485)
inactive: erlotinib -0.017 | [1] 0.032 | [2] 0.041 | [3] 0 | [4] 0.023 | [5] 0.064 | [6] 0.022 | [7] -0.104 | [8] -0.044 | [9] 0.058

SNRPC (UniProt Q5TAL2)
inactive: erlotinib 0.108 | [1] -0.47 | [2] 0.127 | [3] -0.25 | [4] 0.028 | [5] 0.027 | [6] 0.093 | [7] 0.148 | [8] -0.041 | [9] 0.123

SMPD2 (UniProt O60906)
inactive: erlotinib 0.068 | [1] -0.028 | [2] 0.013 | [3] 0.057 | [4] 0.083 | [5] 0.04 | [6] -0.053 | [7] -0.092 | [8] 0.009 | [9] 0.016

SMG5 (UniProt Q9UPR3)
inactive: erlotinib 0.08 | [1] -0.169 | [2] -0.001 | [3] 0.125 | [4] -0.058 | [5] 0.045 | [6] 0.048 | [7] 0.002 | [8] -0.009 | [9] -0.011

SND1 (UniProt Q7KZF4)
inactive: erlotinib -0.022 | [1] -0.077 | [2] -0.64 | [3] 0.031 | [4] -0.072 | [5] -0.032 | [6] -0.151 | [7] 0.036 | [8] -0.026 | [9] -0.27

SNF8 (UniProt Q96H20)
inactive: erlotinib -0.011 | [1] 0.001 | [2] 0.034 | [3] 0.033 | [4] -0.029 | [5] 0.02 | [6] -0.033 | [7] -0.042 | [8] 0 | [9] 0.065

SORT1 (UniProt Q99523)
inactive: erlotinib 0.005 | [1] -0.024 | [2] 0.03 | [3] -0.012 | [4] 0.014 | [5] 0.034 | [6] 0.022 | [7] -0.018 | [8] -0.012 | [9] 0.06

SMARCA1 (UniProt P28370)
inactive: erlotinib 0.028 | [1] 0.037 | [2] -0.015 | [3] -0.094 | [4] 0.141 | [5] 0.021 | [6] -0.08 | [7] -0.018 | [8] 0.111 | [9] 0.006

SNRPD2 (UniProt P62316)
inactive: erlotinib -0.047 | [1] -0.093 | [2] -0.039 | [3] 0 | [4] -0.069 | [5] 0.066 | [6] -0.01 | [7] -0.057 | [8] 0.032 | [9] -0.005

SLCO4A1 (UniProt Q96BD0)
inactive: erlotinib 0.037 | [1] -0.011 | [2] -0.09 | [3] -0.091 | [4] -0.007 | [5] 0.049 | [6] -0.027 | [7] 0.005 | [8] -0.17 | [9] 0.098

Reprinted at random: two records from the list.
SORT1 (UniProt Q99523)
inactive: erlotinib 0.005 | [1] -0.024 | [2] 0.03 | [3] -0.012 | [4] 0.014 | [5] 0.034 | [6] 0.022 | [7] -0.018 | [8] -0.012 | [9] 0.06

SMARCA1 (UniProt P28370)
inactive: erlotinib 0.028 | [1] 0.037 | [2] -0.015 | [3] -0.094 | [4] 0.141 | [5] 0.021 | [6] -0.08 | [7] -0.018 | [8] 0.111 | [9] 0.006

Carrying on.

SMIM26, A0A096LP01
inactive: erlotinib -0.008 | [1] -0.045 | [2] 0.046 | [3] 0.009 | [4] 0.084 | [5] 0.073 | [6] -0.015 | [7] -0.002 | [8] -0.04 | [9] -0.105

SMG8 isoform 2 (UniProt Q8ND04)
inactive: erlotinib 0.083 | [1] -0.059 | [2] -0.129 | [3] -0.12 | [4] -0.083 | [5] 0.018 | [6] -0.075 | [7] -0.145 | [8] -0.048 | [9] 0.085

SMC5 (UniProt Q8IY18)
inactive: erlotinib -0.041 | [1] 0.091 | [2] -0.091 | [3] 0.04 | [4] 0.014 | [5] 0.005 | [6] -0.017 | [7] -0.141 | [8] 0.042 | [9] 0.116

SNX6 (UniProt Q9UNH7)
inactive: erlotinib 0.093 | [1] 0.056 | [2] 0.035 | [3] 0.017 | [4] 0.042 | [5] -0.057 | [6] -0.053 | [7] -0.159 | [8] 0.053 | [9] -0.018

SNX1 (UniProt Q13596)
inactive: erlotinib 0.048 | [1] 0.034 | [2] 0.009 | [3] 0.055 | [4] 0.005 | [5] -0.035 | [6] -0.024 | [7] -0.118 | [8] 0.017 | [9] -0.03

SMC6 isoform 2 (UniProt Q96SB8)
inactive: erlotinib -0.016 | [1] 0.06 | [2] 0.066 | [3] -0.029 | [4] 0.014 | [5] -0.038 | [6] -0.024 | [7] -0.003 | [8] 0.003 | [9] 0.03

SMPD4 isoform 4 (UniProt Q9NXE4)
inactive: erlotinib 0.073 | [1] 0.064 | [2] -0.034 | [3] 0.005 | [4] 0.098 | [5] 0.158 | [6] -0.021 | [7] -0.076 | [8] 0.023 | [9] -0.011

SMARCA4 (UniProt P51532)
inactive: erlotinib 0.02 | [1] 0.073 | [2] 0.032 | [3] 0.102 | [4] 0.035 | [5] -0.001 | [6] -0.096 | [7] -0.124

SMYD2 (UniProt Q9NRG4)
inactive: erlotinib 0.011 | [1] 0.221 | [2] -0.042 | [3] -0.141 | [4] 0.119 | [5] -0.087 | [6] 0.065 | [7] 0.201 | [8] -0.154 | [9] -0.05

SNX12 isoform 1 (UniProt Q9UMY4)
inactive: erlotinib 0.002 | [1] 0 | [2] 0.052 | [3] -0.019 | [4] 0.065 | [5] -0.01 | [6] 0.039 | [7] -0.064 | [8] 0.048 | [9] -0.034
